Ten molecules from paper PMC6945063 (2019) can be followed below.

Chains of the proteins cited; added tags and fusions are not shown. Lines headed by an entry give the natural chain unless they say otherwise; changes in a name come on top. A line that says so, or that is headed by a name, gives the form on record, which may keep a tag or linker. Residues count along the entry.
GFP‐LC3C Δ C‐terminal WT (Q9BXW4, residues 1-126): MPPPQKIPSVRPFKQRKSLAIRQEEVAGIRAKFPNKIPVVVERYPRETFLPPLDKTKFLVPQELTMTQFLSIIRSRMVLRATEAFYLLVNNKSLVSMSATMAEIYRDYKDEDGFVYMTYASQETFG
GFP‐LC3C Δ C‐terminal S93/96D (Q9BXW4, form named): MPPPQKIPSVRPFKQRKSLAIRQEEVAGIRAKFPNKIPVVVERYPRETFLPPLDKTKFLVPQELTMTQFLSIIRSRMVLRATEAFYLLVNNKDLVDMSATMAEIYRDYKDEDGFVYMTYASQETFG
UniProt Q9Y4G2: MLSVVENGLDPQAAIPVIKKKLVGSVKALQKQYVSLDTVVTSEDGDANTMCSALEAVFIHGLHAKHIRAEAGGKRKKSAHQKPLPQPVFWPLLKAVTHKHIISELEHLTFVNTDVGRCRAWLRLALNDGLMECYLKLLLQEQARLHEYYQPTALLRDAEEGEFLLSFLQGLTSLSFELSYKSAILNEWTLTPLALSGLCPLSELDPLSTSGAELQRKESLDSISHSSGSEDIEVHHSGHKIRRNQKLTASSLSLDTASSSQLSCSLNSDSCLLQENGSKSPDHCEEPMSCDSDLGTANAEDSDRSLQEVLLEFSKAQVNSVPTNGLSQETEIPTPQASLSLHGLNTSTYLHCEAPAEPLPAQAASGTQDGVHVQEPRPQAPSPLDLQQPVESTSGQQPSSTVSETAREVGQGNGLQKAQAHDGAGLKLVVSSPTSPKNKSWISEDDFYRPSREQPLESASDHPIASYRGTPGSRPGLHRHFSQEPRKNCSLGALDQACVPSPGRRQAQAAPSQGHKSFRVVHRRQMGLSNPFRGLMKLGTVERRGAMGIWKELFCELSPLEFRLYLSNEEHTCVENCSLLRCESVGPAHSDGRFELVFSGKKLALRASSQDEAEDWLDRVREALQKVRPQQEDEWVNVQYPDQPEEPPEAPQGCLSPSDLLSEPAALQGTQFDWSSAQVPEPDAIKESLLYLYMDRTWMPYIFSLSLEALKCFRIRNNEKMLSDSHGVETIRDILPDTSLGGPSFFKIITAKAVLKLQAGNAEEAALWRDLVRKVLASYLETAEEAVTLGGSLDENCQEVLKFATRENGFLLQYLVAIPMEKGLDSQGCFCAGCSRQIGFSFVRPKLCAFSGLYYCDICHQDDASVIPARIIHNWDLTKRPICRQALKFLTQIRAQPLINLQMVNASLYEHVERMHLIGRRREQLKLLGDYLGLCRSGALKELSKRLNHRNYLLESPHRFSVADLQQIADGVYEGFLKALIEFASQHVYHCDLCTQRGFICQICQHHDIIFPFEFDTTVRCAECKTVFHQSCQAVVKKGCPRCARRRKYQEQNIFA
UniProt Q96CV9: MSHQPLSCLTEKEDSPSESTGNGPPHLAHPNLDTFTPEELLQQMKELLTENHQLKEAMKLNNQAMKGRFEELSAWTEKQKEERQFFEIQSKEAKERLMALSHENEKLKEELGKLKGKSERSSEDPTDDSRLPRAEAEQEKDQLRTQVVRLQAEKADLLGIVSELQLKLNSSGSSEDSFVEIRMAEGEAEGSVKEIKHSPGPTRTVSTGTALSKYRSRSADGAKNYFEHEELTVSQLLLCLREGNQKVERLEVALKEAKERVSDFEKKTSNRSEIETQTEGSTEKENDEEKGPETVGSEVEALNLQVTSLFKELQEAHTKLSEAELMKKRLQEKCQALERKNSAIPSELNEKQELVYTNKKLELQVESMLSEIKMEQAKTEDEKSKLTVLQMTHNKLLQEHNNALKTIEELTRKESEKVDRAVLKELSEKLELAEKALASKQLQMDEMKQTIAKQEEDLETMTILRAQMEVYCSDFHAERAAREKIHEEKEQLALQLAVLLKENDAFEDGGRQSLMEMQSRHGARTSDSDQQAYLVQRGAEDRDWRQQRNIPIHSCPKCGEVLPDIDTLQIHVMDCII

Test [1] deals with GFP‐GABARAP‐L2 WT (human) (UniProt P60520). Briefly: co-IP; HEK293T co-transfected with Flag‐ATG4A, B, C or D and GFP‐LC3C or GFP‐GABARAP‐L2 (WT or mutants); GFP‐Trap_A beads, 2 h at 4°C, Western blot. (Immunoblotting shows a protein as a band on a membrane.)
For test [2], the target named is GFP‐GABARAP‐L2 S87/88D (human) (UniProt P60520). The test is described as above.
Another test deals with T1, GST‐ATG4A (UniProt Q8WYN0).
T1 sequence: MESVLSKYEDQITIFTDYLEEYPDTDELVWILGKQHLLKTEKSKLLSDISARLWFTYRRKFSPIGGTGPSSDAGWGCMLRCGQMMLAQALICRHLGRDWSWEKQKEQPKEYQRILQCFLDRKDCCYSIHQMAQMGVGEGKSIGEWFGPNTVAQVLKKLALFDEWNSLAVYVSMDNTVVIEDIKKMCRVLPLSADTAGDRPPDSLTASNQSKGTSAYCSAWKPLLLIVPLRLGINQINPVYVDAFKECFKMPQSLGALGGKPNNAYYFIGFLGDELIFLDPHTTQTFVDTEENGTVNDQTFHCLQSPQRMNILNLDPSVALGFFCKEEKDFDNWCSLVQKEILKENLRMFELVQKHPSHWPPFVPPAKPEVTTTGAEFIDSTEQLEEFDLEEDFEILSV
Briefly: BLI; GST‐ATG4A (1 μg/ml) immobilised on anti‐GST biosensors; His‐GABARAP‐L2 WT or S87/88D at 20, 10, 5 and 0.625 μM; 300 mM NaCl, 0.004% Tween‐20, 0.05% BSA in PBS; Octet RED96; 1:1 global fitting, steady-state Kd; both purified. A general note: In BLI a coated tip is dipped into the sample, and binding shifts an interference pattern.

For test [3], the target named is GFP‐GABARAP‐L2 Δ C‐terminal WT (human) (UniProt P60520). Nature of the test: co-IP; HEK293T transfected with GFP, GFP‐LC3C Δ C‐terminal or GFP‐GABARAP‐L2 Δ C‐terminal (WT or phospho-mimetic); GFP IP, Western blot for endogenous p62, OPTN, PLEKHM1.
Test [4] addresses GFP‐GABARAP‐L2 Δ C‐terminal S87/88D (human) (UniProt P60520). Described as above.
Test [5] addresses GFP‐LC3C Δ C‐terminal WT (human) (UniProt Q9BXW4). The description is as above.
Test [6] concerns the target GFP‐LC3C Δ C‐terminal S93/96D (human) (UniProt Q9BXW4). The description is as above.
In the next test the target is GST‐GABARAP‐L2 (human) (UniProt P60520). Nature of the test: pull-down; GST‐LC3C or GST‐GABARAP‐L2 on glutathione‐Sepharose beads mixed with cleared extracts of HeLa or HEK293T cells (endogenous TBK1, or HEK293T transfected with TBK1 constructs), 2 h at 4°C, washed four times in lysis buffer, Western blot; only the target purified.

Results are given in words; binding and its absence hold for the method and conditions named. For part of these data: In cells and extracts the contact can be indirect. Some binding calls cover weakened binding; strength is not graded here. For part of these data: Where a sequence is shown, tags or fusion partners need not be part of it.

“Flag‐ATG4D (from UniProt Q86TL0 1-474) (enzyme)”: the binding entry in test [1] and in test [2] was “binds” each time. With “His‐GABARAP‐L2 S87/88D (from UniProt P60520 1-117)”, in the test with GST‐ATG4A, the binding result is listed as “binds”. On to “endogenous PLEKHM1 (from UniProt Q9Y4G2 1-1056)”, for which the binding result in test [3] and in test [4] was “binds” in each case.

For the molecule “endogenous optineurin (OPTN) (from UniProt Q96CV9 1-577)”, the binding result in test [3] and in test [4] was “binds” throughout. As to “endogenous p62 (from UniProt Q13501 1-440)”, the binding entry in test [5], in test [3], in test [6] and in test [4] was “binds” each time.

B1: Flag‐ATG4C (enzyme, UniProt Q96DT6 1-458)
chain: MEATGTDEVDKLKTKFISAWNNMKYSWVLKTKTYFSRNSPVLLLGKCYHFKYEDEDKTLPAESGCTIEDHVIAGNVEEFRKDFISRIWLTYREEFPQIEGSALTTDCGWGCTLRTGQMLLAQGLILHFLGRAWTWPDALNIENSDSESWTSHTVKKFTASFEASLSGEREFKTPTISLKETIGKYSDDHEMRNEVYHRKIISWFGDSPLALFGLHQLIEYGKKSGKKAGDWYGPAVVAHILRKAVEEARHPDLQGITIYVAQDCTVYNSDVIDKQSASMTSDNADDKAVIILVPVRLGGERTNTDYLEFVKGILSLEYCVGIIGGKPKQSYYFAGFQDDSLIYMDPHYCQSFVDVSIKDFPLETFHCPSPKKMSFRKMDPSCTIGFYCRNVQDFKRASEEITKMLKFSSKEKYPLFTFVNGHSRDYDFTSTTTNEEDLFSEDEKKQLKRFSTEEFVLL
In the case of B1, the binding result in test [1] and in test [2] was “binds” each time.

B2: Endogenous TBK1 (enzyme, UniProt Q9UHD2 1-729)
chain: MQSTSNHLWLLSDILGQGATANVFRGRHKKTGDLFAIKVFNNISFLRPVDVQMREFEVLKKLNHKNIVKLFAIEEETTTRHKVLIMEFCPCGSLYTVLEEPSNAYGLPESEFLIVLRDVVGGMNHLRENGIVHRDIKPGNIMRVIGEDGQSVYKLTDFGAARELEDDEQFVSLYGTEEYLHPDMYERAVLRKDHQKKYGATVDLWSIGVTFYHAATGSLPFRPFEGPRRNKEVMYKIITGKPSGAISGVQKAENGPIDWSGDMPVSCSLSRGLQVLLTPVLANILEADQEKCWGFDQFFAETSDILHRMVIHVFSLQQMTAHKIYIHSYNTATIFHELVYKQTKIISSNQELIYEGRRLVLEPGRLAQHFPKTTEENPIFVVSREPLNTIGLIYEKISLPKVHPRYDLDGDASMAKAITGVVCYACRIASTLLLYQELMRKGIRWLIELIKDDYNETVHKKTEVVITLDFCIRNIEKTVKVYEKLMKINLEAAELGEISDIHTKLLRLSSSQGTIETSLQDIDSRLSPGGSLADAWAHQEGTHPKDRNVEKLQVLLNCMTEIYYQFKKDKAERRLAYNEEQIHKFDKQKLYYHATKAMTHFTDECVKKYEAFLNKSEEWIRKMLHLRKQLLSLTNQCFDIEEEVSKYQEYTNELQETLPQKMFTASSGIKHTMTPIYPSSNTLVEMTLGMKKLKEEMEGVVKELAENNHILERFGSLTMDGGLRNVDCL
For B2, the binding entry in the test with GST‐GABARAP‐L2 (human) is reported as “binds”.

B3: full‐length TBK1 (enzyme, UniProt Q9UHD2 1-729)
chain: MQSTSNHLWLLSDILGQGATANVFRGRHKKTGDLFAIKVFNNISFLRPVDVQMREFEVLKKLNHKNIVKLFAIEEETTTRHKVLIMEFCPCGSLYTVLEEPSNAYGLPESEFLIVLRDVVGGMNHLRENGIVHRDIKPGNIMRVIGEDGQSVYKLTDFGAARELEDDEQFVSLYGTEEYLHPDMYERAVLRKDHQKKYGATVDLWSIGVTFYHAATGSLPFRPFEGPRRNKEVMYKIITGKPSGAISGVQKAENGPIDWSGDMPVSCSLSRGLQVLLTPVLANILEADQEKCWGFDQFFAETSDILHRMVIHVFSLQQMTAHKIYIHSYNTATIFHELVYKQTKIISSNQELIYEGRRLVLEPGRLAQHFPKTTEENPIFVVSREPLNTIGLIYEKISLPKVHPRYDLDGDASMAKAITGVVCYACRIASTLLLYQELMRKGIRWLIELIKDDYNETVHKKTEVVITLDFCIRNIEKTVKVYEKLMKINLEAAELGEISDIHTKLLRLSSSQGTIETSLQDIDSRLSPGGSLADAWAHQEGTHPKDRNVEKLQVLLNCMTEIYYQFKKDKAERRLAYNEEQIHKFDKQKLYYHATKAMTHFTDECVKKYEAFLNKSEEWIRKMLHLRKQLLSLTNQCFDIEEEVSKYQEYTNELQETLPQKMFTASSGIKHTMTPIYPSSNTLVEMTLGMKKLKEEMEGVVKELAENNHILERFGSLTMDGGLRNVDCL
Consider B3, for which the binding result in the test with GST‐GABARAP‐L2 (human) is “binds”.

B4: TBK1 K38A (enzyme, UniProt Q9UHD2 1-729)
chain: MQSTSNHLWLLSDILGQGATANVFRGRHKKTGDLFAIAVFNNISFLRPVDVQMREFEVLKKLNHKNIVKLFAIEEETTTRHKVLIMEFCPCGSLYTVLEEPSNAYGLPESEFLIVLRDVVGGMNHLRENGIVHRDIKPGNIMRVIGEDGQSVYKLTDFGAARELEDDEQFVSLYGTEEYLHPDMYERAVLRKDHQKKYGATVDLWSIGVTFYHAATGSLPFRPFEGPRRNKEVMYKIITGKPSGAISGVQKAENGPIDWSGDMPVSCSLSRGLQVLLTPVLANILEADQEKCWGFDQFFAETSDILHRMVIHVFSLQQMTAHKIYIHSYNTATIFHELVYKQTKIISSNQELIYEGRRLVLEPGRLAQHFPKTTEENPIFVVSREPLNTIGLIYEKISLPKVHPRYDLDGDASMAKAITGVVCYACRIASTLLLYQELMRKGIRWLIELIKDDYNETVHKKTEVVITLDFCIRNIEKTVKVYEKLMKINLEAAELGEISDIHTKLLRLSSSQGTIETSLQDIDSRLSPGGSLADAWAHQEGTHPKDRNVEKLQVLLNCMTEIYYQFKKDKAERRLAYNEEQIHKFDKQKLYYHATKAMTHFTDECVKKYEAFLNKSEEWIRKMLHLRKQLLSLTNQCFDIEEEVSKYQEYTNELQETLPQKMFTASSGIKHTMTPIYPSSNTLVEMTLGMKKLKEEMEGVVKELAENNHILERFGSLTMDGGLRNVDCL
Regarding B4, the binding result with GST‐GABARAP‐L2 (human) is listed as “binds”.

B5: GST‐ATG4A (enzyme)
chain: MESVLSKYEDQITIFTDYLEEYPDTDELVWILGKQHLLKTEKSKLLSDISARLWFTYRRKFSPIGGTGPSSDAGWGCMLRCGQMMLAQALICRHLGRDWSWEKQKEQPKEYQRILQCFLDRKDCCYSIHQMAQMGVGEGKSIGEWFGPNTVAQVLKKLALFDEWNSLAVYVSMDNTVVIEDIKKMCRVLPLSADTAGDRPPDSLTASNQSKGTSAYCSAWKPLLLIVPLRLGINQINPVYVDAFKECFKMPQSLGALGGKPNNAYYFIGFLGDELIFLDPHTTQTFVDTEENGTVNDQTFHCLQSPQRMNILNLDPSVALGFFCKEEKDFDNWCSLVQKEILKENLRMFELVQKHPSHWPPFVPPAKPEVTTTGAEFIDSTEQLEEFDLEEDFEILSV
Take B5: the binding result in test [1] and in test [2] was “binds” each time.
